Laboratory results as given in paper doi:10.1101/2025.11.03.686312.
Numbering of substitutions follows the chain as printed. Names may count otherwise. No constants are given. Whether binding was seen depends on the method and setting. In cells and extracts the contact can be indirect. A yes stands for co-enrichment or nearness to the bait. Other partners may have been found. For some assays here: A no says only that the protein was not detected with the bait. Each block holds one molecule with its values, some of them ahead of it.

Protein sequences, listed by entry. Tags and fused reporters are not part of them. Residues count along the entry.
UniProt O75396: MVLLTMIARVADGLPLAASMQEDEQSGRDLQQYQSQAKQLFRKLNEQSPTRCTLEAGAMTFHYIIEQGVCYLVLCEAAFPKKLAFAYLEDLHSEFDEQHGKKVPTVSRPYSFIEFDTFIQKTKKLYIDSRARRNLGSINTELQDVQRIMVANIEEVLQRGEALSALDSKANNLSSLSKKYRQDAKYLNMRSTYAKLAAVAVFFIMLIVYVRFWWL
UniProt Q9P0T7, residues 21-183: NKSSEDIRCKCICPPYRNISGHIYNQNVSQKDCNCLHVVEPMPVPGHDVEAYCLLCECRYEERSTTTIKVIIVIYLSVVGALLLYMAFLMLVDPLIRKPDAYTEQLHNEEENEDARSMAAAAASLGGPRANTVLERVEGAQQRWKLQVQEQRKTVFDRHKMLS

Key:
Assay in all cases: affinity purification with mass spectrometry
[1] = target: T1, ClC-5 V523Δ, stably expressed in RPTEC/TERT1 cells depleted of endogenous CLCN5 (human) (UniProt P51795)
T1 sequence: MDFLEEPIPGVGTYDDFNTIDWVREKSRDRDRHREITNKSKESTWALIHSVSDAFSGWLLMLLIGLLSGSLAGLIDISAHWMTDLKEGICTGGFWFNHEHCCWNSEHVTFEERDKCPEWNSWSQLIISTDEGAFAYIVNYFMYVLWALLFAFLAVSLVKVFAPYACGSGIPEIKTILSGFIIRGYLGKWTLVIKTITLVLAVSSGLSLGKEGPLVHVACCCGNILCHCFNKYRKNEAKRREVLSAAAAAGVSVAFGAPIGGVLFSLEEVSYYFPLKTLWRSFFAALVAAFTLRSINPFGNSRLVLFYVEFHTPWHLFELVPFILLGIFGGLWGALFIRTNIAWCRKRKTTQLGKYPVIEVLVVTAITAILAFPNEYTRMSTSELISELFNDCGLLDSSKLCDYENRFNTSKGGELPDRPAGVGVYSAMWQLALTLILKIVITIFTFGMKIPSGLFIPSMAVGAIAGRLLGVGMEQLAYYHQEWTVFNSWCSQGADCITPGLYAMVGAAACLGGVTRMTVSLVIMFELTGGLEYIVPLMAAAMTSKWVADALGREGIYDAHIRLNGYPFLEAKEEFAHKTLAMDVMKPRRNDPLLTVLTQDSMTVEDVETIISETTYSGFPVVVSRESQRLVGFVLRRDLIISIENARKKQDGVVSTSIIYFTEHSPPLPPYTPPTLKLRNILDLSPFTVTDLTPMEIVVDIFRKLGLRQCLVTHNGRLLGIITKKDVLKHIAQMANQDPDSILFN

[2] = target: T2, ClC-5 WT (Cl-/H+ antiporter ClC-5), stably expressed in RPTEC/TERT1 cells depleted of endogenous CLCN5 (human) (UniProt P51795)
T2 sequence: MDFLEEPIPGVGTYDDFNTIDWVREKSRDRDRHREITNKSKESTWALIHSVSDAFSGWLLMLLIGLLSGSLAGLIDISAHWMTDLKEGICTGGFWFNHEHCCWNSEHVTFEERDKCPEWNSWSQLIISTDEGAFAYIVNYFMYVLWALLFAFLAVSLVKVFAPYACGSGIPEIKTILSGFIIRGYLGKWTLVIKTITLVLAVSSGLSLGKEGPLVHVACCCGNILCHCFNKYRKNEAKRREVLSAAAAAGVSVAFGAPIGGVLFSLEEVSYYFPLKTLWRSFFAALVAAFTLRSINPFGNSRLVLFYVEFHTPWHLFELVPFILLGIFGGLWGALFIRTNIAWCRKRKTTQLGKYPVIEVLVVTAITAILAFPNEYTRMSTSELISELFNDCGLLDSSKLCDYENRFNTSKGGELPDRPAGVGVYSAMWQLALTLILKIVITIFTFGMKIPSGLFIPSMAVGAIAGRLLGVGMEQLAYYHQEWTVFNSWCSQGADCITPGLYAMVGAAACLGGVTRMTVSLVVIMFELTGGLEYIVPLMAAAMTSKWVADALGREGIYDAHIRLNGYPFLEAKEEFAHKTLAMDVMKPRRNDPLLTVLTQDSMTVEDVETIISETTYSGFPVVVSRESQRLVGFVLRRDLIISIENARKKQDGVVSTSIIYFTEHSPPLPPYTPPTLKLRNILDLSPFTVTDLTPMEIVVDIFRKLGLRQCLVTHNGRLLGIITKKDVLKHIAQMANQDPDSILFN

[3] = target: T3, ClC-5 E527D, stably expressed in RPTEC/TERT1 cells depleted of endogenous CLCN5 (human) (UniProt P51795)
T3 sequence: T2 sequence with E527D

[4] = target: T4, ClC-5 I524K, stably expressed in RPTEC/TERT1 cells depleted of endogenous CLCN5 (human) (UniProt P51795)
T4 sequence: T2 sequence with I524K

Molecule: SEC22B (vesicle-trafficking protein SEC22B, R-SNARE), endogenous in RPTEC/TERT1 cells (from UniProt O75396 1-215)
- binding [1]: no binding
- binding [2]: binds
- binding [3]: no binding
- binding [4]: no binding

B1: ClC-5 E527D, stably expressed in RPTEC/TERT1 cells depleted of endogenous CLCN5 (protein, UniProt P51795-1 1-746)
chain: T2 sequence with E527D
- binding [3]: binds

B2: ClC-5 I524K, stably expressed in RPTEC/TERT1 cells depleted of endogenous CLCN5 (protein, UniProt P51795-1 1-746)
chain: T2 sequence with I524K
- binding [4]: binds

Second part, the molecule after the results:

- binding [1]: binds
- binding [2]: binds
- binding [3]: binds
- binding [4]: binds
Molecule: TMEM9 (proton-transporting V-type ATPase complex assembly regulator TMEM9), endogenous in RPTEC/TERT1 cells (from UniProt Q9P0T7 21-183)

- binding [4]: binds
B3: TCTN2, endogenous in RPTEC/TERT1 cells (protein, UniProt Q96GX1 26-697)
chain: DLAFIPPFIRMSGPAVSASLVGDTEGVTVSLAVLQDEAGILPIPTCGVLNNETEDWSVTVIPGAKVLEVTVRWKRGLDWCSSNETDSFSESPCILQTLLVSASHNSSCSAHLLIQVEIYANSSLTHNASENVTVIPNQVYQPLGPCPCNLTAGACDVRCCCDQECSSNLTTLFRRSCFTGVFGGDVNPPFDQLCSAGTTTRGVPDWFPFLCVQSPLANTPFLGYFYHGAVSPKQDSSFEVYVDTDAKDFADFGYKQGDPIMTVKKAYFTIPQVSLAGQCMQNAPVAFLHNFDVKCVTNLELYQERDGIINAKIKNVALGGIVTPKVIYEEATDLDKFITNTETPLNNGSTPRIVNVEEHYIFKWNNNTISEINVKIFRAEINAHQKGIMTQRFVVKFLSYNSGNEEELSGNPGYQLGKPVRALNINRMNNVTTLHLWQSAGRGLCTSATFKPILFGENVLSGCLLEVGINENCTQLRENAVERLDSLIQATHVAMRGNSDYADLSDGWLEIIRVDAPDPGADPLASSVNGMCLDIPAHLSIRILISDAGAVEGITQQEILGVETRFSSVNWQYQCGLTCEHKADLLPISASVQFIKIPAQLPHPLTRFQINYTEYDCNRNEVCWPQLLYPWTQYYQGELHSQCVAKGLLLLLFLTLALFLSNPWTRICKAYS
